Some entries share one result that the patent states for a list of compounds. Oligonucleotides are written 5' to 3', each unit as a sugar letter and its base; * is a phosphorothioate linkage, no mark a phosphodiester; rarer units and linkages stand in square brackets, end groups in braces. Plain capitals give the bases only. e = 2'-O-(2-methoxyethyl) (MOE); [5mC] = 5-methylcytosine; d = 2'-deoxy (DNA)
tested on: Human STAT3 mRNA; test: Inhibition of human STAT3 mRNA levels in A549 cells, 75 nM, real-time PCR (Table 13); format: cell-based; details: relative to untreated control cells
Procedure: Oligonucleotide activity is assayed by quantitation of STAT3 mRNA levels by real-time PCR (RT-PCR) using the ABI PRISMS 7700 Sequence Detection System (PE-Applied Biosystems, Foster City, Calif.) according to manufacturer's instructions. This is a closed-tube, non-gel-based, fluorescence detection system which allows high-throughput quantitation of polymerase chain reaction (PCR) products in real-time. As opposed to standard PCR, in which amplification products are quantitated after the PCR is completed, products in RT-PCR are quantitated as they accumulate. This is accomplished by including in the PCR reaction an oligonucleotide probe that anneals specifically between the forward and reverse PCR primers, and contains two fluorescent dyes. A reporter dye (e.g., JOE or FAM, PE-Applied Biosystems, Foster City, Calif.) is attached to the 5′ end of the probe and a quencher dye (e.g., TAMRA, PE-Applied Biosystems, Foster City, Calif.) is attached to the 3′ end of the probe. When the probe and dyes are intact, reporter dye emission is quenched by the proximity of the 3′ quencher dye. During amplification, annealing of the probe to the target sequence creates a substrate that can be cleaved by the 5′-exonuclease activity of Taq polymerase. […] With each cycle, additional reporter dye molecules are cleaved from their respective probes, and the fluorescence intensity is monitored at regular (six-second) intervals by laser optics built into the ABI PRISM™ 7700 Sequence Detection System. In each assay, a series of parallel reactions containing serial dilutions of mRNA from untreated control samples generates a standard curve that is used to quantitate the percent inhibition after antisense oligonucleotide treatment of test samples.
RT-PCR reagents are obtained from PE-Applied Biosystems, Foster City, Calif. RT-PCR reactions are carried out by adding 25 l PCR cocktail (1× TAQMAN7 buffer A, 5.5 mM MgCl2, 300 µM each of DATP, dCTP and dGTP, 600 µM of dUTP, 100 nM each of forward primer, reverse primer, and probe, 20 U RNAse inhibitor, 1.25 units AMPLITAQ GOLD7, and 12.5 U MuLV reverse transcriptase) to 96 well plates containing 25 l poly(A) mRNA solution. The RT reaction is carried out by incubation for 30 minutes at 48° C. following a 10 minute incubation at 95° C. to activate the AMPLITAQ GOLD7, 40 cycles of a two-step PCR protocol are carried out: 95° C. for 15 seconds (denaturation) followed by 60° C. for 1.5 minutes (annealing/extension).
The compounds were analyzed for their effect on STAT3 mRNA levels in A549 cells. The human lung carcinoma cell line A549 was obtained from the American Type Culture Collection (ATCC) (Manassas, Va.). A549 cells were routinely cultured in DMEM basal media (Invitrogen Corporation, Carlsbad, Calif.) supplemented with 10% fetal calf serum (Invitrogen Corporation, Carlsbad, Calif.), 100 units/mL penicillin, and 100 ug/mL streptomycin (Invitrogen Corporation, Carlsbad, Calif.). Cells were routinely passaged by trypsinization and dilution when they reached 90% confluence.
When cells reached 65-75% confluency, they were treated with oligonucleotide. For cells grown in 96-well plates, wells were washed once with […] OPTI-MEM-1 reduced-serum medium (Invitrogen Corporation, Carlsbad, Calif.) and then treated with 130 µL of OPTI-MEM-1 containing […] LIPOFECTIN (Invitrogen Corporation, Carlsbad, Calif.) and 75 nM of the compounds in Table 13. Cells were treated and data were obtained in duplicate. Untreated cells served as controls. After 4-7 hours of treatment at 37° C., the medium was replaced with fresh medium. Cells were harvested 16-24 hours after oligonucleotide treatment. STAT3 mRNA levels in A549 cells were quantitated by real-time PCR as described by other methods herein.
Probes and primers to human STAT3 were designed to hybridize to a human STAT3 sequence, using published sequence information (incorporated herein as SEQ ID NO: 1). For STAT 3 the PCR primers were: • forward primer: […]

Inhibited human STAT3 expression, at least 60%:
SEQ ID NO 269: Table 13 2′-MOE gapmer targeted to human STAT3 (antisense eA*eT*eT*eG*e[5mC]*dT*dG*d[5mC]*dA*dG*dG*dT*d[5mC]*dG*dT*eT*eG*eG*eT*eG)
SEQ ID NO 285: Table 13 2′-MOE gapmer targeted to human STAT3 (antisense eG*eA*eA*e[5mC]*eA*d[5mC]*dA*dT*d[5mC]*d[5mC]*dT*dT*dA*dT*dT*eT*eG*e[5mC]*eA*eT)
SEQ ID NO 235: Table 13 2′-MOE gapmer targeted to human STAT3 (antisense eA*e[5mC]*e[5mC]*eA*e[5mC]*dA*dA*d[5mC]*dT*dG*dG*d[5mC]*dA*dA*dG*eG*eA*eG*eT*eG)
SEQ ID NO 280: Table 13 2′-MOE gapmer targeted to human STAT3 (antisense eA*eG*eA*eT*eA*dG*d[5mC]*dA*dG*dA*dA*dG*dT*dA*dG*eG*eA*eG*eA*eT)
SEQ ID NO 243: Table 13 2′-MOE gapmer targeted to human STAT3 (antisense eT*eA*eG*e[5mC]*e[5mC]*d[5mC]*dA*dT*dG*dT*dG*dA*dT*d[5mC]*dT*eG*eA*e[5mC]*eA*e[5mC])
SEQ ID NO 247: Table 13 2′-MOE gapmer targeted to human STAT3 (antisense eA*eA*eG*eG*eA*dG*dA*dA*dG*d[5mC]*d[5mC]*d[5mC]*dT*dT*dG*e[5mC]*e[5mC]*eA*eG*e[5mC])
SEQ ID NO 223: Table 13 2′-MOE gapmer targeted to human STAT3 (antisense eA*eG*eA*eG*eG*d[5mC]*dT*dG*d[5mC]*d[5mC]*dG*dT*dT*dG*dT*eT*eG*eG*eA*eT)
SEQ ID NO 184: Table 13 2′-MOE gapmer targeted to human STAT3 (antisense eT*eT*eG*eG*e[5mC]*dT*dT*d[5mC]*dT*d[5mC]*dA*dA*dG*dA*dT*eA*e[5mC]*e[5mC]*eT*eG)
SEQ ID NO 165: Table 13 2′-MOE gapmer targeted to human STAT3 (antisense eA*eT*eG*e[5mC]*e[5mC]*d[5mC]*dT*dT*dA*d[5mC]*dT*d[5mC]*dT*d[5mC]*d[5mC]*eG*e[5mC]*eA*eT*e[5mC])
SEQ ID NO 272: Table 13 2′-MOE gapmer targeted to human STAT3 (antisense eG*eA*e[5mC]*eA*eT*d[5mC]*dG*dG*d[5mC]*dA*dG*dG*dT*d[5mC]*dA*eA*eT*eG*eG*eT)
SEQ ID NO 188: Table 13 2′-MOE gapmer targeted to human STAT3 (antisense eT*eG*eA*eA*eG*dG*dT*dG*d[5mC]*dT*dG*d[5mC]*dT*d[5mC]*d[5mC]*eA*eG*e[5mC]*eA*eT)
SEQ ID NO 237: Table 13 2′-MOE gapmer targeted to human STAT3 (antisense eT*eG*eG*e[5mC]*eA*dT*d[5mC]*dT*dG*dA*d[5mC]*dA*dG*dA*dT*eG*eT*eT*eG*eG)
SEQ ID NO 159: Table 13 2′-MOE gapmer targeted to human STAT3 (antisense eA*eG*e[5mC]*e[5mC]*eT*d[5mC]*dT*dG*d[5mC]*dA*d[5mC]*d[5mC]*d[5mC]*dT*d[5mC]*eA*eT*eG*eT*eT)
SEQ ID NO 287: Table 13 2′-MOE gapmer targeted to human STAT3 (e[5mC]*eA*e[5mC]*eA*eT*d[5mC]*d[5mC]*d[5mC]*d[5mC]*dT*dG*dA*dT*d[5mC]*dA*eT*eG*eG*eG*eT)
SEQ ID NO 256: Table 13 2′-MOE gapmer targeted to human STAT3 (antisense eT*eT*eA*eT*eA*dG*d[5mC]*d[5mC]*d[5mC]*dA*dT*dG*dA*dT*dG*eA*eT*eT*eT*e[5mC])
SEQ ID NO 299: Table 13 2′-MOE gapmer targeted to human STAT3 (eT*eT*eA*eA*eG*dT*dT*dT*d[5mC]*dT*dT*dA*dA*dA*dT*eA*e[5mC]*eA*eG*eA)
SEQ ID NO 185: Table 13 2′-MOE gapmer targeted to human STAT3 (antisense eG*eT*eG*eA*eT*dT*d[5mC]*dT*dT*d[5mC]*d[5mC]*d[5mC]*dA*d[5mC]*dA*eG*eG*e[5mC]*eA*e[5mC])
SEQ ID NO 179: Table 13 2′-MOE gapmer targeted to human STAT3 (antisense e[5mC]*eG*eA*e[5mC]*eT*d[5mC]*dT*dT*dG*d[5mC]*dA*dG*dG*dA*dA*eG*e[5mC]*eG*eG*e[5mC])
SEQ ID NO 274: Table 13 2′-MOE gapmer targeted to human STAT3 (antisense eT*eG*e[5mC]*eA*eT*d[5mC]*dA*dA*dT*dG*dA*dA*dT*d[5mC]*dT*eA*eA*eA*eG*eT)
SEQ ID NO 226: Table 13 2′-MOE gapmer targeted to human STAT3 (antisense eA*eT*e[5mC]*eA*eG*dG*dT*dG*d[5mC]*dA*dG*d[5mC]*dT*d[5mC]*d[5mC]*eT*e[5mC]*eA*eG*eT)
SEQ ID NO 293: Table 13 2′-MOE gapmer targeted to human STAT3 (eG*eT*eA*eT*eG*dT*dA*dG*d[5mC]*dT*dA*dT*dA*dG*dG*eT*eG*eG*e[5mC]*e[5mC])
SEQ ID NO 220: Table 13 2′-MOE gapmer targeted to human STAT3 (antisense eG*e[5mC]*eA*e[5mC]*eA*d[5mC]*dT*dT*dT*dA*dA*dT*dT*dT*dT*eA*eA*eG*e[5mC]*eT)
SEQ ID NO 284: Table 13 2′-MOE gapmer targeted to human STAT3 (antisense eT*eG*e[5mC]*eA*eT*dT*dT*dA*dG*dA*dT*dA*dA*dA*dA*eG*e[5mC]*eA*eG*eA)
SEQ ID NO 225: Table 13 2′-MOE gapmer targeted to human STAT3 (antisense eT*e[5mC]*eT*e[5mC]*eT*dG*d[5mC]*dT*d[5mC]*d[5mC]*d[5mC]*dT*d[5mC]*dA*dG*eG*eG*eT*e[5mC]*eA)
SEQ ID NO 189: Table 13 2′-MOE gapmer targeted to human STAT3 (antisense eT*eT*e[5mC]*eT*eG*dT*dT*d[5mC]*dT*dA*dG*dA*dT*d[5mC]*d[5mC]*eT*eG*e[5mC]*eA*e[5mC])
SEQ ID NO 291: Table 13 2′-MOE gapmer targeted to human STAT3 (eG*e[5mC]*eT*eT*eA*d[5mC]*dA*dG*dA*dA*dA*d[5mC]*dA*dG*dG*e[5mC]*eA*eG*eA*eA)
SEQ ID NO 199: Table 13 2′-MOE gapmer targeted to human STAT3 (antisense e[5mC]*eA*eT*eG*eT*d[5mC]*dT*d[5mC]*d[5mC]*dT*dT*dG*dA*d[5mC]*dT*e[5mC]*eT*eT*eG*eA)

— US20050074879A1, “Antisense oligonucleotide modulation of STAT3 expression” (priority 2000, published 2005)
